The record followed here is article PMC7819943, “Rice protein-binding microarrays: a tool to detect cis-acting elements near promoter regions in rice”.

By UniProt entry, the sequences of proteins in these tests, tags left out.
UniProt Q0JBA9, entry or part of it: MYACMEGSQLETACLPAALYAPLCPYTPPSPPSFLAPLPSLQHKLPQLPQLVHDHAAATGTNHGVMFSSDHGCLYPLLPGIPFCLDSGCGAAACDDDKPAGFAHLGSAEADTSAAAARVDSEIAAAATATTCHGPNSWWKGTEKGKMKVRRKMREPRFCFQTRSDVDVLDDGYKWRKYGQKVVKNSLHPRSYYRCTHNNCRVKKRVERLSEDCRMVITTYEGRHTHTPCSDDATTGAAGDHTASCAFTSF

The list shows a part of the results.

The target in this experiment is OsWRKY34 (Oryza sativa, UniProt Q0JBA9 1-250). As to the kind of experiment: protein-binding microarray (RPBM); PBS, 2% BSA, 51.3 ng/ul salmon testes DNA, 50 uM zinc acetate, 200 nM TF, 25 C, 1 h; high values mean tight binding. Particulars: protein: recombinant; tags: N-terminal polyhistidine and DsRed monomer fusion (pET32a); label: CyDye5-dUTP incorporated in the synthesized complementary strand; 3' TTTTT single-stranded linker to array surface; dsDNA, one strand shown. In a few lines: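 Using Ni–NTA, transcription factors fused N-terminally to polyhistidine and DsRed were purified after expression in E. coli BL21-CodonPlus. These were incubated at 200 nM with a blocked, double-stranded custom Agilent array for 1 h at 25 °C in a buffer containing 50 µM zinc acetate, and the array was washed. The binding signal is per-feature fluorescence intensity (arbitrary units) on an Axon 4000B scanner.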
As to “CCCACGTCGCGCGCGCGCCTCCCATCGCCTGCCTATACATCGGAGTCACCTAGTGCAG”, the binding signal was 11000 fluorescence intensity (a.u.).

Turning to “GGCTCCGGCCGCCGGCGCAACGGGTATTCTCATCCTCATTCGGAGTCACCTAGTGCAG”, the binding signal was 9800 fluorescence intensity (a.u.).

On to “TTAATCCACTACATTTTTTTCTATCCATATAGGATTTTGACGGAGTCACCTAGTGCAG”, for which the binding signal is 8070 fluorescence intensity (a.u.).

Turning to “CATGTCAGCAATCACTTTCCAATGCTTAACAATACCCACTCGGAGTCACCTAGTGCAG”, the binding signal was 8890 fluorescence intensity (a.u.).

In the case of “TTGTATGCCTACTTGGACTTTTCTTTTCTTTTTTTTCTTTCGGAGTCACCTAGTGCAG”, the binding signal was 8690 fluorescence intensity (a.u.).

On to “ATCACTTATATTCTCTCGTCTCATTTTAGTCGTTTACTAACGGAGTCACCTAGTGCAG”, for which the binding signal is 8390 fluorescence intensity (a.u.).

With “ATTGGGTGCTTCTTCCAACCCCATCAGCTTGGCAATGACACGGAGTCACCTAGTGCAG”, the binding signal is 8380 fluorescence intensity (a.u.).

For “AATGTTCCAGTGGTCTTCTTGTTTGGATTATACTGTATTGCGGAGTCACCTAGTGCAG”, the binding signal is 10700 fluorescence intensity (a.u.).

As to “AACAGTAGGCCATTCTCATTCAGTTGTGTAACTATGTAACCGGAGTCACCTAGTGCAG”, the binding signal was 9180 fluorescence intensity (a.u.).

For “TGACGGGGTTTGGTCTCATCTTTCGTGGTCAGATTTGCCGCGGAGTCACCTAGTGCAG”, the binding signal was 8360 fluorescence intensity (a.u.).

As to “CGGTTGACTTTTTTTTTCTAATAAGCCAAAACGGCTTATTCGGAGTCACCTAGTGCAG”, the binding signal is 18800 fluorescence intensity (a.u.).

On to “GTGTGGGGCTTTTAACTTTTTGTCACTTTTAAATTTTAAACGGAGTCACCTAGTGCAG”, for which the binding signal is 21300 fluorescence intensity (a.u.).

Take “ACCACTCTCTTCATCCCTAGCCTAATCATCCCTATCAACACGGAGTCACCTAGTGCAG”: the binding signal was 8790 fluorescence intensity (a.u.).

For the sequence “GTAGGGTCATGCTTATGTCTGTTCGATTGGATCTGGGATTCGGAGTCACCTAGTGCAG”, the binding signal was 9270 fluorescence intensity (a.u.).

“TCTAGACTCATCTACCTCATTTTCTAGAAGTTCATTCATCCGGAGTCACCTAGTGCAG”: the binding signal is 8380 fluorescence intensity (a.u.).

For the sequence “CCGGTGACCCCGGCACTCCGCCGATCCGCTTCTCCTCCTCCGGAGTCACCTAGTGCAG”, the binding signal is 8320 fluorescence intensity (a.u.).

For the sequence “AGATTTTGTTTTTCTTTTCTGTTTCTTTCCATTTGATTTTCGGAGTCACCTAGTGCAG”, the binding signal was 9340 fluorescence intensity (a.u.).

On to “CGACGAATTCTGCTCTCCATTCTCCTCGCCGTTGACGAAACGGAGTCACCTAGTGCAG”, for which the binding signal is 10600 fluorescence intensity (a.u.).

As for “TCGTTTCCCTCGCCGCCGACGCGTCTTAGTTTGCCCATGCCGGAGTCACCTAGTGCAG”, the binding signal was 10400 fluorescence intensity (a.u.).

Take “CACACCGAAACGGCCCACGCGTACCGACGCACCTCGCTCACGGAGTCACCTAGTGCAG”: the binding signal was 9110 fluorescence intensity (a.u.).

Consider “AGGCCGTTGATCTTCTTTTTGGATTATGTTACAGGTTTCACGGAGTCACCTAGTGCAG”, for which the binding signal was 8460 fluorescence intensity (a.u.).

Consider “GTTTTACCTTTTTTCCATCGGTTTCTTTTCCTTGGTCGAACGGAGTCACCTAGTGCAG”, for which the binding signal is 8240 fluorescence intensity (a.u.).

With “GCCGTCGTCTCCCGTGTGCTCGGCTTCTCCGCCGTCCCTCCGGAGTCACCTAGTGCAG”, the binding signal is 8170 fluorescence intensity (a.u.).

As to “CGGCGAGCGAAGGCCGCGGCGGGGCGGGCGGAGGCGGGACCGGAGTCACCTAGTGCAG”, the binding signal is 10500 fluorescence intensity (a.u.).

On to “GGTGGTGGGTAAAAGAACAATAATATCTCGCCGGTAAATTCGGAGTCACCTAGTGCAG”, for which the binding signal was 8930 fluorescence intensity (a.u.).

As for “ATTATAACTATTCTTCGTTCGTTTCTTCACCTACTTCTACCGGAGTCACCTAGTGCAG”, the binding signal is 14500 fluorescence intensity (a.u.).

On to “GCGGGCGGGCGGGCGGGCGGCAAGAAACAGGGATCTTGAGCGGAGTCACCTAGTGCAG”, for which the binding signal was 15600 fluorescence intensity (a.u.).

Regarding “ATCAAGCCGAATAGTGCTGACATCTTCATTCTGGTTTTTTCGGAGTCACCTAGTGCAG”, the binding signal was 9510 fluorescence intensity (a.u.).

Regarding “GCATATAAACGAGCGCCTCCGCTGCCACTTCACAAGCAACCGGAGTCACCTAGTGCAG”, the binding signal was 9080 fluorescence intensity (a.u.).

Regarding “AATATTTTTTGACTTCTCATTTCACTTGAAATCACACGACCGGAGTCACCTAGTGCAG”, the binding signal was 8330 fluorescence intensity (a.u.).

Regarding “GGTGGGAGGAGGGATGAAAAAATGACGAGTTCGATTTTAACGGAGTCACCTAGTGCAG”, the binding signal was 9990 fluorescence intensity (a.u.).

As for “TTATCGAATGATTGACCGGTCAAACCCTTCTTAGCCATAACGGAGTCACCTAGTGCAG”, the binding signal is 11600 fluorescence intensity (a.u.).

On to “ATACTGAGAAAGTGCCAAGTTTTTGTCTGCTTCATGTAACCGGAGTCACCTAGTGCAG”, for which the binding signal was 8110 fluorescence intensity (a.u.).

In the case of “TCCGCTTTAGAAGGCTTCTCTACTGTACTTCCTTTCACTACGGAGTCACCTAGTGCAG”, the binding signal is 9430 fluorescence intensity (a.u.).

For “GCCATCATCTTCTTCGCCGGTTTGTTTCTTCCTCTTCTTTCGGAGTCACCTAGTGCAG”, the binding signal was 13900 fluorescence intensity (a.u.).

In the case of “CTTCCGCGTGCCGCTCCGCGCCGCCATGCACCCGGCGCGCCGGAGTCACCTAGTGCAG”, the binding signal was 9400 fluorescence intensity (a.u.).

On to “GGATCTGTTAGCTTCCTGGTGTAATCAAATTGTCTCTTTACGGAGTCACCTAGTGCAG”, for which the binding signal was 8970 fluorescence intensity (a.u.).

Regarding “GCGTTGGAACTGGTCATCTTGCAAAAAAGTCCTCGATTAACGGAGTCACCTAGTGCAG”, the binding signal was 8080 fluorescence intensity (a.u.).

Take “GTTTGTCCCGATGTTGATTTTTCACATAATATTTGACCATCGGAGTCACCTAGTGCAG”: the binding signal is 9470 fluorescence intensity (a.u.).

On to “CATGATCTATTACCACCCTAGATCACGGTCAGTTCATCTCCGGAGTCACCTAGTGCAG”, for which the binding signal was 8180 fluorescence intensity (a.u.).

“GTCACAAGGTTTTTGTTTTGTTTTCTTTTTTTTTGTCGCTCGGAGTCACCTAGTGCAG”: the binding signal is 8230 fluorescence intensity (a.u.).

For the sequence “ATATCCACCCCTAGTTCCAACTTATTAGTCATTTACAAGTCGGAGTCACCTAGTGCAG”, the binding signal is 9450 fluorescence intensity (a.u.).
